Measurements: paper PMC11609304
No constants are given. Whether binding was seen depends on the method and setting. Binding seen in cells or lysates may run through a third protein. Some binding calls cover weakened binding; strength is not graded here. For some assays here: Sequences can lack the tags named with a protein.

Amino acid sequences for entries named in this document (tags omitted).
UniProt P51784: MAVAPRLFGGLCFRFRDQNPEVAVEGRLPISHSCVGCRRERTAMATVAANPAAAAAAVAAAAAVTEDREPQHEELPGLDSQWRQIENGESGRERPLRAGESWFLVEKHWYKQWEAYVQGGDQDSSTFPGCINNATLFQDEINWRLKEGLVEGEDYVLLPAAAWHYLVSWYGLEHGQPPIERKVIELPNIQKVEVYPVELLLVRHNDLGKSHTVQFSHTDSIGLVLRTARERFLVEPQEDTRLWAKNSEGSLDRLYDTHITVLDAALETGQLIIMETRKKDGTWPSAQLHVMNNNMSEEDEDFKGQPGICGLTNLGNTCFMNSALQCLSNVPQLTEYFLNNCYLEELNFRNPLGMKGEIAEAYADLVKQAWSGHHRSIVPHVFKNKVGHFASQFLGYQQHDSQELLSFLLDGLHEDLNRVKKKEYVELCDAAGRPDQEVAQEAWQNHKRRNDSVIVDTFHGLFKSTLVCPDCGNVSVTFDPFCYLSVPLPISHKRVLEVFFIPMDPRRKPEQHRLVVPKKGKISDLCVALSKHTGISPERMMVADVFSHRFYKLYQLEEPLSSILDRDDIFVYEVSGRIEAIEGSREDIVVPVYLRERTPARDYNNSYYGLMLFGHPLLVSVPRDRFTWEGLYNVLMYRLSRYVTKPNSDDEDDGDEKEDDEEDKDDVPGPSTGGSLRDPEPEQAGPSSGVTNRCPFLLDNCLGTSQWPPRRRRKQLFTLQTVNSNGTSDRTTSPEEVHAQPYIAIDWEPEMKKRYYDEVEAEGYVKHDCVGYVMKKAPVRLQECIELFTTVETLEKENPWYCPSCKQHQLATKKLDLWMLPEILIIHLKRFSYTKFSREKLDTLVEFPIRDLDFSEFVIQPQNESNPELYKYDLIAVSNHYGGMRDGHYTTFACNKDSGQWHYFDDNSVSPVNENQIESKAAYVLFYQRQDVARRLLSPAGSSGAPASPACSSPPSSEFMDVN

Tests used:
His-Nrf2 = molecular target: T1, His-Nrf2 (UniProt Q16236); assay: co-IP; Flag-USP11 and His-Nrf2 plasmids and empty vectors transfected alone or cotransfected into HEK293T; Flag-tag or His-tag antibody at 4 °C overnight, protein A/G PLUS-Agarose beads 3 h, Western blot
T1 sequence: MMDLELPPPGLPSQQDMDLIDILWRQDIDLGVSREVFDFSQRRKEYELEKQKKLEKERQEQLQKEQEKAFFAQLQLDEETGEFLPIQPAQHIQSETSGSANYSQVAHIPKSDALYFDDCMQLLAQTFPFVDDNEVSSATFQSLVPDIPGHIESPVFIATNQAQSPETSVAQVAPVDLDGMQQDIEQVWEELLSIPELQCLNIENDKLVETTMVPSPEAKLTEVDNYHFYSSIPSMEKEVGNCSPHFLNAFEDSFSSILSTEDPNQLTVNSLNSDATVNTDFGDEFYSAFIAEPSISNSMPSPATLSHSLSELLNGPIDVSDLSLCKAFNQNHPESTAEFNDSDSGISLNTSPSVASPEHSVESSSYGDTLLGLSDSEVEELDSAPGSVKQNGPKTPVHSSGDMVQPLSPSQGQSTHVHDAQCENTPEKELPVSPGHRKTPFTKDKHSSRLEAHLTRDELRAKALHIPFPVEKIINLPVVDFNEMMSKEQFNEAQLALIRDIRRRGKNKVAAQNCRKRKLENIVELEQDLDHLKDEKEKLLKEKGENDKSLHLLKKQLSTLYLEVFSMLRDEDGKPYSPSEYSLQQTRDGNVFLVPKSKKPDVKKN

[1] = molecular target: T2, Nuclear factor erythroid 2-related factor 2 (Nrf2), endogenous (human (endogenous in HCT116/DLD1)) (UniProt Q16236); assay: co-IP; endogenous proteins in HCT116/DLD1 lysate; primary antibody (USP11, Nrf2 or IgG) at 4 °C overnight, protein A/G PLUS-Agarose beads 3 h, Western blot
T2 sequence: T1 sequence

Substance | binding (His-Nrf2) | binding [1]
Flag-USP11 (from UniProt P51784 1-963) (enzyme) | binds | –
USP11 (ubiquitin-specific protease 11), endogenous (from UniProt P51784 1-963) (enzyme) | – | binds
